Assay results reported in ChEMBL document CHEMBL4316593 (Eur J Med Chem, 2019).
Further values from the same series stand in other lists.

Assays:
Type in all cases: cell-based
Settings in all cases: U-87MG ATCC
[1] = Inhibition of RTK/PI3K/AKT/mTOR signaling in human U87 cells assessed as down regulation of HSP90AA1 gene expression at cytotoxic IC50 measured after 48 hrs relative to control
[2] = Inhibition of RTK/PI3K/AKT/mTOR signaling in human U87 cells assessed as up regulation of family with sequence similarity 208 member A gene expression at cytotoxic IC50 measured after 48 hrs relative to control
[3] = Inhibition of RTK/PI3K/AKT/mTOR signaling in human U87 cells assessed as up regulation of zinc finger protein 827 gene expression at cytotoxic IC50 measured after 48 hrs relative to control
[4] = Inhibition of RTK/PI3K/AKT/mTOR signaling in human U87 cells assessed as up regulation of CCDC110 gene expression at cytotoxic IC50 measured after 48 hrs relative to control
[5] = Inhibition of RTK/PI3K/AKT/mTOR signaling in human U87 cells assessed as up regulation of family with sequence similarity 114 member A1 gene expression at cytotoxic IC50 measured after 48 hrs relative to control
[6] = Inhibition of RTK/PI3K/AKT/mTOR signaling in human U87 cells assessed as down regulation of HIPK2 gene expression at cytotoxic IC50 measured after 48 hrs relative to control
[7] = Inhibition of RTK/PI3K/AKT/mTOR signaling in human U87 cells assessed as down regulation of PPP3CC gene expression at cytotoxic IC50 measured after 48 hrs relative to control
[8] = Inhibition of RTK/PI3K/AKT/mTOR signaling in human U87 cells assessed as up regulation of ATP9A gene expression at cytotoxic IC50 measured after 48 hrs relative to control
[9] = Inhibition of RTK/PI3K/AKT/mTOR signaling in human U87 cells assessed as up regulation of BRD4 interacting chromatin remodelling complex associated protein like gene expression at cytotoxic IC50 measured after 48 hrs relative to control
[10] = Inhibition of RTK/PI3K/AKT/mTOR signaling in human U87 cells assessed as up regulation of SH3TC2 gene expression at cytotoxic IC50 measured after 48 hrs relative to control
[11] = Inhibition of RTK/PI3K/AKT/mTOR signaling in human U87 cells assessed as up regulation of EPS8 like 1 gene expression at cytotoxic IC50 measured after 48 hrs relative to control
[12] = Inhibition of RTK/PI3K/AKT/mTOR signaling in human U87 cells assessed as up regulation of PRDX5 gene expression at cytotoxic IC50 measured after 48 hrs relative to control
[13] = Inhibition of RTK/PI3K/AKT/mTOR signaling in human U87 cells assessed as up regulation of replication initiator 1 gene expression at cytotoxic IC50 measured after 48 hrs relative to control
[14] = Inhibition of RTK/PI3K/AKT/mTOR signaling in human U87 cells assessed as down regulation of MINPP1 gene expression at cytotoxic IC50 measured after 48 hrs relative to control
[15] = Inhibition of RTK/PI3K/AKT/mTOR signaling in human U87 cells assessed as up regulation of methionyl aminopeptidase type 1D, mitochondrial gene expression at cytotoxic IC50 measured after 48 hrs relative to control
[16] = Inhibition of RTK/PI3K/AKT/mTOR signaling in human U87 cells assessed as up regulation of BCL2 like 1 gene expression at cytotoxic IC50 measured after 48 hrs relative to control
[17] = Inhibition of RTK/PI3K/AKT/mTOR signaling in human U87 cells assessed as up regulation of sorbitol dehydrogenase gene expression at cytotoxic IC50 measured after 48 hrs relative to control
[18] = Inhibition of RTK/PI3K/AKT/mTOR signaling in human U87 cells assessed as down regulation of CCDC82 gene expression at cytotoxic IC50 measured after 48 hrs relative to control
[19] = Inhibition of RTK/PI3K/AKT/mTOR signaling in human U87 cells assessed as down regulation of SF3B4 gene expression at cytotoxic IC50 measured after 48 hrs relative to control
[20] = Inhibition of RTK/PI3K/AKT/mTOR signaling in human U87 cells assessed as up regulation of chromobox 7 gene expression at cytotoxic IC50 measured after 48 hrs relative to control
[21] = Inhibition of RTK/PI3K/AKT/mTOR signaling in human U87 cells assessed as up regulation of SPINT2 gene expression at cytotoxic IC50 measured after 48 hrs relative to control
[22] = Inhibition of RTK/PI3K/AKT/mTOR signaling in human U87 cells assessed as down regulation of CAP1 gene expression at cytotoxic IC50 measured after 48 hrs relative to control
[23] = Inhibition of RTK/PI3K/AKT/mTOR signaling in human U87 cells assessed as up regulation of MYT1 gene expression at cytotoxic IC50 measured after 48 hrs relative to control
[24] = Inhibition of RTK/PI3K/AKT/mTOR signaling in human U87 cells assessed as up regulation of cortexin 1 gene expression at cytotoxic IC50 measured after 48 hrs relative to control
[25] = Inhibition of RTK/PI3K/AKT/mTOR signaling in human U87 cells assessed as down regulation of PANK3 gene expression at cytotoxic IC50 measured after 48 hrs relative to control
[26] = Inhibition of RTK/PI3K/AKT/mTOR signaling in human U87 cells assessed as down regulation of TRAF6 gene expression at cytotoxic IC50 measured after 48 hrs relative to control
[27] = Inhibition of RTK/PI3K/AKT/mTOR signaling in human U87 cells assessed as down regulation of PTTG1 gene expression at cytotoxic IC50 measured after 48 hrs relative to control
[28] = Inhibition of RTK/PI3K/AKT/mTOR signaling in human U87 cells assessed as up regulation of cathepsin C gene expression at cytotoxic IC50 measured after 48 hrs relative to control
[29] = Inhibition of RTK/PI3K/AKT/mTOR signaling in human U87 cells assessed as down regulation of AMBRA1 gene expression at cytotoxic IC50 measured after 48 hrs relative to control
[30] = Inhibition of RTK/PI3K/AKT/mTOR signaling in human U87 cells assessed as down regulation of MKI67 gene expression at cytotoxic IC50 measured after 48 hrs relative to control
[31] = Inhibition of RTK/PI3K/AKT/mTOR signaling in human U87 cells assessed as down regulation of SCARA3 gene expression at cytotoxic IC50 measured after 48 hrs relative to control
[32] = Inhibition of RTK/PI3K/AKT/mTOR signaling in human U87 cells assessed as down regulation of CAPRIN2 gene expression at cytotoxic IC50 measured after 48 hrs relative to control

Q: With `CC(=O)C(=NNc1ccccc1C#N)C(C)=O` as the compound, how does the log2FC [1] read?
A: -0.893

Q: And the log2FC [2]?
A: 1.46

Q: What about the log2FC [3] of the same compound?
A: 1.38

Q: What about the log2FC [4] of the same compound?
A: 2.45

Q: What about the log2FC [5] of the same compound?
A: 0.729

Q: What about the log2FC [6] of the same compound?
A: -0.71

Q: What about the log2FC [7] of the same compound?
A: -0.833

Q: And the log2FC [8]?
A: 0.53

Q: And the log2FC [9]?
A: 1.02

Q: And the log2FC [10]?
A: 1.65

Q: What about the log2FC [11] of the same compound?
A: 1.29

Q: And the log2FC [12]?
A: 0.635

Q: What about the log2FC [13] of the same compound?
A: 0.814

Q: What about the log2FC [14] of the same compound?
A: -1.37

Q: What about the log2FC [15] of the same compound?
A: 1.45

Q: And the log2FC [16]?
A: 1.49

Q: And the log2FC [17]?
A: 0.667

Q: And the log2FC [18]?
A: -0.805

Q: And the log2FC [19]?
A: -0.541

Q: What about the log2FC [20] of the same compound?
A: 1.17

Q: And the log2FC [21]?
A: 0.604

Q: And the log2FC [22]?
A: -0.572

Q: And the log2FC [23]?
A: 1.96

Q: What about the log2FC [24] of the same compound?
A: 0.96

Q: And the log2FC [25]?
A: -0.492

Q: What about the log2FC [26] of the same compound?
A: -0.984

Q: What about the log2FC [27] of the same compound?
A: -0.834

Q: And the log2FC [28]?
A: 1.19

Q: What about the log2FC [29] of the same compound?
A: -1.13

Q: What about the log2FC [30] of the same compound?
A: -0.555

Q: And the log2FC [31]?
A: -1.03

Q: What about the log2FC [32] of the same compound?
A: -0.753
